Measurements as given in PMC4764564.
No constants are given. Whether binding was seen depends on the method and setting. Binding seen in cells or lysates may run through a third protein. These calls come from enrichment with a bait or labelling near it, and not all partners need be listed.

Amino acid sequences for entries named in this document (tags omitted).
UniProt P70605: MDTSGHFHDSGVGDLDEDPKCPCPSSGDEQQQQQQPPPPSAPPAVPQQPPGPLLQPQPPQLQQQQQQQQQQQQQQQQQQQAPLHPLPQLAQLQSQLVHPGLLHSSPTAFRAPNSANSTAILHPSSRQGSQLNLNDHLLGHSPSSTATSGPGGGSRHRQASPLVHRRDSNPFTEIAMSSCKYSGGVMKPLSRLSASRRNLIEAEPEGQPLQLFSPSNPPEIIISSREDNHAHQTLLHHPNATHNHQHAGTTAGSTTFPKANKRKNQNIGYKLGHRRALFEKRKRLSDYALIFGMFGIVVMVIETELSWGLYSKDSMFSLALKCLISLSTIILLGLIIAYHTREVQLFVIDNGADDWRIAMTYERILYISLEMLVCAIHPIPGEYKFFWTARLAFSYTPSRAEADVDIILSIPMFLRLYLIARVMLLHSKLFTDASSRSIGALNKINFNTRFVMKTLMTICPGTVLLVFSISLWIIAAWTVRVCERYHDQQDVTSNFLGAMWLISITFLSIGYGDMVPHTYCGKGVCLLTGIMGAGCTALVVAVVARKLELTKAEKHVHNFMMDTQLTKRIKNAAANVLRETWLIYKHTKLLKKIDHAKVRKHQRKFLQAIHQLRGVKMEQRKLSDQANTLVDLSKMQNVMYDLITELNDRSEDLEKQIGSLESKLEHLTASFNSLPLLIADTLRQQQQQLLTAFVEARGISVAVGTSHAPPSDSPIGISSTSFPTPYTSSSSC
UniProt Q62696: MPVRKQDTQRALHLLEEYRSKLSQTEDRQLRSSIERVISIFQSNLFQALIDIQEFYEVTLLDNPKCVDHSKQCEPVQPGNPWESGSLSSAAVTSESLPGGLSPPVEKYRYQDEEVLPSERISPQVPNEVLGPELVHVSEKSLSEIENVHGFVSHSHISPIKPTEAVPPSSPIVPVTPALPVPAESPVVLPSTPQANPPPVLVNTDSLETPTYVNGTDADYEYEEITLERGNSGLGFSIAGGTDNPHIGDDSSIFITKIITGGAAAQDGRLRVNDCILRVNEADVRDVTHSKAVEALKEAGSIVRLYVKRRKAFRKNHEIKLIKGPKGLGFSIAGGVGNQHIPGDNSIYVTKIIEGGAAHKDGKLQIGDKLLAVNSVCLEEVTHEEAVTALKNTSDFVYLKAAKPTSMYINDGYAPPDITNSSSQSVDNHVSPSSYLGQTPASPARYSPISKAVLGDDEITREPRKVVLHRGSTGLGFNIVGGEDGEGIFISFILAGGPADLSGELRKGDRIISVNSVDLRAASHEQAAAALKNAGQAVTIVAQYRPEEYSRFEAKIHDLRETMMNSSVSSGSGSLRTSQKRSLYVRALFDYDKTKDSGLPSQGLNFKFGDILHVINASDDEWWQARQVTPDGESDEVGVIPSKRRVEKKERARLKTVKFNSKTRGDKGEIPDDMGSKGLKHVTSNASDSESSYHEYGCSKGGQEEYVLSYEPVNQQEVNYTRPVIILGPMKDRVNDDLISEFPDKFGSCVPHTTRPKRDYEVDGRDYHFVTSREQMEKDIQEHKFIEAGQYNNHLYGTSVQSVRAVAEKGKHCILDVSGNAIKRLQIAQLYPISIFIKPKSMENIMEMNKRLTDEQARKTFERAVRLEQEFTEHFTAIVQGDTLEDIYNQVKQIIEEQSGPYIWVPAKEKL

B1: Lin7A, native, from brain membranes (protein, UniProt Q9Z250 1-232)
chain: MLKPSVTSAPTADMATLTVVQPLTLDRDVARAIELLEKLQESGEVPVHKLQSLKKVLQSEFCTAIREVYQYMHETITVNGCPEFRARATAKATVAAFAASEGHSHPRVVELPKTDEGLGFNVMGGKEQNSPIYISRIIPGGVAERHGGLKRGDQLLSVNGVSVEGEHHEKAVELLKAAKDSVKLVVRYTPKVLEEMEARFEKLRTARRRQQQQLLIQQQQQQQQQPQQNHMS
B2: Lin7C, native, from brain membranes (protein, UniProt Q792I0 1-197)
chain: MAALGEPVRLERDICRAIELLEKLQRSGEVPPQKLQALQRVLQSEFCNAVREVYEHVYETVDISSSPEVRANATAKATVAAFAASEGHSHPRVVELPKTEEGLGFNIMGGKEQNSPIYISRIIPGGIADRHGGLKRGDQLLSVNGVSVEGEHHEKAVELLKAAQGKVKLVVRYTPKVLEEMESRFEKMRSAKRRQQT

Each molecule was assayed against T1, MPP2 (membrane palmitoylated protein 2; p55), native, from brain membranes (rat (endogenous in rat brain)) (UniProt D3ZAA9) (assay: affinity purification with mass spectrometry; affinity purifications with anti-MPP2a and anti-MPP2b, pre-immunization IgG as control, on rat brain membrane fractions solubilized with CL-91; whole eluates to high-resolution mass spectrometry).
T1 sequence: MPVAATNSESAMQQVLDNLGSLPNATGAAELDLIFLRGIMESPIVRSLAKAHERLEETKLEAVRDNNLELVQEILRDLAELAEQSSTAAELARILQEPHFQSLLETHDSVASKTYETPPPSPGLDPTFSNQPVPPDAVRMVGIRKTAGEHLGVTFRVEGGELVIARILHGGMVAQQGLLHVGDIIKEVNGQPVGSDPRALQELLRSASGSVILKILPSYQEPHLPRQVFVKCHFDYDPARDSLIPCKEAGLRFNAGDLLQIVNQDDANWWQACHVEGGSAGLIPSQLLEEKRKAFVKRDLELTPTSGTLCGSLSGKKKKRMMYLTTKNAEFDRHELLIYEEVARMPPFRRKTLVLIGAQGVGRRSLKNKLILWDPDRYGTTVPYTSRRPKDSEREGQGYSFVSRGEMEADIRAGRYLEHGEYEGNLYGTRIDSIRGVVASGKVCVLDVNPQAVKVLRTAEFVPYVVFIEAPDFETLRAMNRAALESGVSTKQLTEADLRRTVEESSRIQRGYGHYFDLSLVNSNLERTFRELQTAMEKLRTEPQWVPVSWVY

Question: Which binding does the source give for “SK3, native, from brain membranes (from UniProt P70605 1-732)” here?
Answer: Its binding is “binds”.

Question: How did the binding turn out when “DLG1 (SAP97), native, from brain membranes (from UniProt Q62696 1-911)” was run?
Answer: Its binding is “binds”.

Question: With B1 as the molecule, how does the binding read?
Answer: The binding was “binds”.

Question: With B2 as the molecule, how does the binding read?
Answer: Its binding is “binds”.
